Patent US9062124B2 (priority 2008, dated 2015)

Assay: general procedure: Boc solid-phase peptide synthesis; Boc Thr(OBzl) Pam resin; methoxybenzhydrylamine resin for C-terminal amides; HBTU (FastBoc single couplings); DEPBT for lactams
Settings: conjugation step; for final HPLC purity: analytical HPLC, Zorbax C8, 214 nm, MALDI mass spectral analysis

Substance | difficulty met | final HPLC purity
Glucagon Cys^24 Mal-PEG-20K | The product ratio had not significantly improved | ˜90%
Glucagon Cys^17 Mal-PEG-5K | – | aprox. 90%
Glucagon Cys^29 Mal-PEG-5K | – | greater than 95%
